From PubChem BioAssay AID2685 (National Center for Advancing Translational Sciences (NCATS), 2010)
Some of the results follow. The main result of the screen is listed elsewhere. These columns were measured beside it and carry no call. Compounds called inactive in the main read-out are mostly missing here. Words in brackets tell the shape of the fitted curve; partial curves, single points and poor fits give uncertain potencies.

Experiment: qHTS Assay for Lipid Storage Modulators in Drosophila S3 Cells;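 on cell number change: cells counted by Cell Tracker Red CMTPX staining in the red channel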
Conditions: BODIPY lipid droplet fluorescence, 18-24 h; for cell number change: measured here: cell count max response, cells fed with added oleic acid
Method in brief: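 Drosophila S3 cells loaded with oleic acid (400 uM, as added) and compounds at several concentrations; lipid droplets imaged by 488-nm laser-scanning cytometry, 500–530 nm intensity and object ratio to cell channel. Percent activity normalized to 20 uM Triacsin C.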

[1] = measured here: cell number channel AC50, cells fed with added oleic acid
[2] = measured here: lipid fluorescence (Fed channel) AC50, cells fed with added oleic acid

SMILES	cell number change [%]	AC50 [1]	AC50 [2]
CC(C)(C)c1ccc(OCC(=O)Nc2ccc3c4c(cccc24)C(=O)NC3=O)cc1	-84.1	20.6 µM [falling, single point]	–
Cc1ccc(S(=O)(=O)NC(CC(N)=O)C(=O)O)cc1 (configuration not stated)	-21.9	0.0058 µM [falling, full curve, poor fit]	5.8 µM [falling, full curve]
CN(C)C1C(=O)c2ccccc2C1=O	30.5	29.1 µM [rising, single point]	–
Cc1ccc(C)c(NC(=O)CCC(=O)NNC(=S)Nc2ccccc2)c1	38.4	14.6 µM [rising, partial curve]	–
Cc1cccc2cc(C(c3nnnn3C3CCCC3)N3CCOCC3)c(=O)[nH]c12 (configuration not stated)	78.9	3.66 µM [rising, partial curve]	7.31 µM [rising, partial curve]
CC(=O)Nc1cccc(Oc2ncnc3scc(-c4ccc(C(C)C)cc4)c23)c1	36.8	8.2 µM [rising, partial curve]	8.2 µM [rising, partial curve]
Cc1ccc2nc(C)c(C(=O)N/N=C/c3ccc(N4CCOCC4)cc3)cc2c1	14.9	–	4.11 µM [rising, partial curve]
COc1cccc(N2CCN(S(=O)(=O)c3ccc4nc(-c5ccccc5)[nH]c4c3)CC2)c1	–	0.651 µM [rising, single point]	2.31 µM [rising, partial curve]
CCN1CCN(C(=O)CN(c2ccc(F)cc2)S(=O)(=O)c2ccc(OC)c(OC)c2)CC1	4.95	–	–
Cc1ccc(C(=O)NNC(=O)c2ccc(SCC3CCCO3)c([N+](=O)[O-])c2)cc1 (configuration not stated)	13.4	–	2.91 µM [rising, partial curve]
Cc1ccc2nsnc2c1NC(=O)COc1ccccc1	-33	0.164 µM [falling, full curve, poor fit]	18.4 µM [falling, partial curve, poor fit]
Cc1cccc(N2CCN(S(C)(=O)=O)CC2)c1C	1.2	–	29.1 µM [rising, single point]
CCOC(=O)COc1cc2c(C(=O)OCC)c(C)oc2cc1Br	-1.88	–	–
Cc1nnn(-c2nonc2N)c1C(=O)NNC(=O)c1ccc(Cl)c(Cl)c1	31.7	–	–
Cc1ccc(C(=O)N2CCCC(CCC(=O)N3CCN(c4ccccn4)CC3)C2)cc1C (configuration not stated)	-5.1	–	29.1 µM [falling, single point]
CC(C)CC1NC(=O)c2ccccc2-n2c1nc1cc(F)ccc1c2=O (configuration not stated)	-23.6	0.58 µM [falling, single point]	9.2 µM [rising, partial curve]
COc1ccc(C(=O)N2CCN(c3ccc(C)c(C)c3)CC2)cc1OC	-33.3	29.1 µM [falling, single point]	29.1 µM [falling, partial curve, poor fit]
CNC(=O)c1c(NC(=O)CCS(=O)(=O)c2ccc(F)cc2)sc(C)c1C	29.7	1.16 µM [rising, full curve, poor fit]	–
C/C(=C\C(=O)c1ccccc1)NNC(=O)c1ccc(Cl)cc1	5.47	0.164 µM [rising, full curve, poor fit]	–
CC(C)NC(=O)NC(=O)CSc1nnc(COc2ccccc2F)n1C(C)C1CC2CCC1C2 (configuration not stated)	-59.1	29.1 µM [falling, single point]	2.91 µM [falling, single point]

Individual results from the list.
cell number change [%] with CNC(=O)c1c(NC(=O)CCS(=O)(=O)c2ccc(F)cc2)sc(C)c1C is entered as 29.7
AC50 [1] with CC(=O)Nc1cccc(Oc2ncnc3scc(-c4ccc(C(C)C)cc4)c23)c1 is entered as 8.2 µM [rising, partial curve]

(continued)

SMILES	cell number change [%]	AC50 [1]	AC50 [2]
COc1ccc(C)cc1S(=O)(=O)N1CCN(S(=O)(=O)c2cc(C)ccc2OC)C(C)C1 (configuration not stated)	–	6.51 µM [falling, single point]	–
CC(C)N1C(=O)C(=O)N(CC(=O)N2CCc3ccccc32)C1=O	14.4	–	29.1 µM [rising, single point]
O=C(O)CCCC(=O)N1CCCC1	-17.6	–	32.6 µM [falling, single point]
Cc1ccc(C(=O)NC(=S)NNC(=O)COc2ccc([N+](=O)[O-])cc2)cc1	8.7	–	6.51 µM [falling, single point]
COc1ccccc1N1CCN(CCCCOc2cccc3ccccc23)CC1	-44.9	29.1 µM [falling, single point]	3.66 µM [rising, single point]
O=C(CN1C(=O)NC2(CCCCC2)C1=O)N1CCN(S(=O)(=O)c2ccc(F)cc2)CC1	-0.659	–	–
CC(C)(C)C(=O)N1NC(=Nc2ccccc2)SC1(C)C	-53.4	29.1 µM [falling, single point]	32.6 µM [falling, single point]
CCCNC(=O)c1nc2ncc(Br)cn2n1	-0.628	–	0.164 µM [falling, full curve]
CCn1cc(C(=O)NCCc2ccccc2)c(=O)c2cc(F)c(N3CCN(C)CC3)cc21	–	–	0.58 µM [rising, single point]
COc1ccc(C(=O)COC(=O)c2ccc(-n3cnnn3)cc2)c(OC)c1	2.81	–	–
COc1ccc(CNC(=O)CNC(=O)N2CC(=O)Nc3ccccc32)cc1	2.28	–	29.1 µM [rising, single point]
O=C(Nc1ccc2c(c1)OCO2)c1c(F)c(F)c(F)c(F)c1F	-4.43	–	16.4 µM [rising, single point]
CC(=O)c1c(O)cc(O)c(C(C)=O)c1O	-41.9	16.4 µM [falling, single point]	29.1 µM [falling, single point]
CCCNC(=O)CN(C1CCCCC1)S(C)(=O)=O	-17.3	1.84 µM [falling, partial curve]	–
Cc1ccc(SCC(=O)Nc2cccc(S(=O)(=O)N3CCOCC3)c2)cc1C	15	–	–
O=C(NCCCN1CCOCC1)c1cc(Cl)ccc1[N+](=O)[O-]	–	–	29.1 µM [rising, single point]
CC12CC(c3ccccc3O1)N(C(=O)c1ccc(Br)o1)C(=O)N2c1ccccc1 (configuration not stated)	37.8	4.61 µM [rising, partial curve]	–
O=C(/C=C\Nc1ccc(Cl)cn1)c1ccc(Br)cc1	-9.55	–	23.1 µM [falling, single point]
CCOCCCn1c(SCC(=O)N2CCOCC2)nc2ccccc2c1=O	18.9	–	29.1 µM [falling, single point]
COc1cccc(Nc2nnc(SCn3nnc4ccccc4c3=O)s2)c1	-10.6	–	2.59 µM [rising, full curve, poor fit]

SMILES	cell number change [%]	AC50 [1]	AC50 [2]
CCC(=O)c1ccc(N2CCN(C(=O)c3cccs3)CC2)c(F)c1	2.59	–	29.1 µM [falling, single point]
O=C1Nc2ccccc2C(=O)N2C[C@@H](O)C[C@H]12	18.5	–	10.3 µM [rising, partial curve, poor fit]
COC(=O)c1sccc1NC(=O)c1ccc(Br)s1	–	–	6.51 µM [rising, single point]
CCOC(=O)c1nnc(-c2ccccc2)nc1Sc1c(Cl)cccc1Cl	-17.3	–	0.184 µM [falling, full curve, poor fit]
c1cncc(-c2ccc3ncnc(NCc4cccs4)c3c2)c1	26.6	–	9.2 µM [rising, partial curve, poor fit]
CCOC(=O)c1nnn(-c2nonc2-n2cccc2)c1C	0.331	–	–
O=C(CCN1C(=O)c2ccccc2S1(=O)=O)Nc1cc(Cl)ccc1Cl	-75	29.1 µM [falling, single point]	–
COCc1nnc(SCC(=O)NCc2ccccc2)n1-c1ccccc1	-8.09	–	–
O=C(CSc1ncnc2c1oc1ccccc12)NCc1ccco1	-52.4	9.2 µM [falling, partial curve]	–
CCc1ccc(NC(=O)C(C)OC(=O)c2cc(=O)[nH]c3ccc(S(=O)(=O)Nc4ccc(F)cc4)cc23)cc1 (configuration not stated)	81.2	29.1 µM [rising, single point]	–
O=C(COc1coc(CN2CCN(c3ccccc3)CC2)cc1=O)NC1CCCC1	9.34	–	2.31 µM [falling, single point]
O=C(CN1CCN(Cc2ccccc2)CC1)Nc1nc2ccccc2s1	11.3	–	–
Cc1ccc(C2(CCNC(C)c3cccs3)CCOC(C(C)C)C2)cc1 (configuration not stated)	-0.615	–	–
COc1ccc(N=c2sc3ccccc3n2C)cc1	37.5	8.2 µM [rising, partial curve, poor fit]	6.51 µM [falling, partial curve, poor fit]
O=C(CSc1nnc(CNC(=O)c2cccs2)o1)Nc1cccc(F)c1	32.9	0.0082 µM [rising, full curve, poor fit]	5.8 µM [rising, full curve]
Cc1ccc(NC(=O)CN2C(=O)S/C(=C\c3ccccn3)C2=O)cc1C	-31.7	4.61 µM [falling, full curve]	–
CCC1C(=O)NCCN1C(=O)c1ccccc1OC1CCN(S(C)(=O)=O)CC1 (configuration not stated)	-10.9	–	0.231 µM [falling, full curve, poor fit]
CCOC(=O)c1c(C)n(C(=O)c2ccco2)c(=O)n1C(=O)c1ccco1	-7.14	–	–
CC(C)CCN1C(=O)c2ccc(C(=O)Nc3ccc(O)cc3C(=O)O)cc2C1=O	20.7	0.651 µM [rising, full curve]	–
NS(=O)(=O)c1ccc(CCN=C(NS(=O)(=O)c2cccs2)c2ccccc2)cc1	-7.1	–	1.84 µM [falling, partial curve, poor fit]
